Test results: PubChem BioAssay AID1671190 (National Center for Advancing Translational Sciences (NCATS), 2021)
The campaign covered roughly 580,000 compounds. About 6,100 (1.1%) were called active. This list was built around the results that the source calls inconclusive (neither active nor inactive); the mix of calls is not that of the screen. Calls come from the whole dose curve; as a rule, active = well fitted inhibition curve with a large enough effect; inconclusive = small, poorly fitted or top-dose-only effect, or another doubt; inactive = no such curve, though single readings can be large or run the other way. Where the call is inconclusive, the potency comes from a doubtful curve fit.
Potency is the fitted concentration of half-maximal effect.

Chains of the proteins cited; added tags and fusions are not shown.
UniProt P18054, whole entry, looked up: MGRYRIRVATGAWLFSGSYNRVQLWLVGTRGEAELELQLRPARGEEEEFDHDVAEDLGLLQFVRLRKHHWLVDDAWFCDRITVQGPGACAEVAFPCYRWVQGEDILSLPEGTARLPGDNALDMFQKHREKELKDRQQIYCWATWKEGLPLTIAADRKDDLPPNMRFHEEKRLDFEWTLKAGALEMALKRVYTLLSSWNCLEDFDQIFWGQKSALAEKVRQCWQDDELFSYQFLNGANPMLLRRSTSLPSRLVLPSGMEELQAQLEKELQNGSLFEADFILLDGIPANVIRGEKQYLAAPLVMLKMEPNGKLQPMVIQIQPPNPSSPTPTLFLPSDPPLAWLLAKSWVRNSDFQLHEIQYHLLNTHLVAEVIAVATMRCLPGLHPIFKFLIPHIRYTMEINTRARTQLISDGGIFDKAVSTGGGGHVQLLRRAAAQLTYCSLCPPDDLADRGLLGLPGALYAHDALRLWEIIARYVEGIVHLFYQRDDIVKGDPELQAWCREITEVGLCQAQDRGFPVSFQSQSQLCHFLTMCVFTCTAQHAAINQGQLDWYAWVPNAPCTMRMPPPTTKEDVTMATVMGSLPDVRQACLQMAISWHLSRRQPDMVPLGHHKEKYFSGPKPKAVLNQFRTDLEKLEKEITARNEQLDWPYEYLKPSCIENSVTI

These molecules were tested against Polyunsaturated fatty acid lipoxygenase ALOX12 (Homo sapiens) (UniProt P18054) (assay: Primary qHTS assay for inhibitors of human arachidonate 12S-lipoxygenase (ALOX12): Round 2). Details: purified 12hLO, xylenol orange hydroperoxide absorbance; series mostly up to 108 µM.
Outline: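 Purified human 12hLO (150 nM final) in 25 mM Hepes, 0.01% Triton X-100, pH 7.0 was preincubated 15 min at room temperature with compound. Then 40 uM arachidonic acid was added, 30 min. Hydroperoxide was read by Fe-XO absorbance ratio 573/405 nm.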
C=CCN1C(=O)C2(OCCCO2)c2c(C)ccc(C)c21 was tested, and the Potency was “inactive”. With COc1ccc(Cl)cc1NC(=O)CCc1ncc(-c2ccc(C)cc2)o1 the Potency was “inactive”. For COc1ccc(-c2nn(-c3ccccc3)cc2C2CC(c3cccs3)=NN2S(C)(=O)=O)cc1 (stereo not drawn), the Potency was inconclusive: 8.91 µM [inhibitor, full curve, poor fit]. With S=C1NC2=C(CCc3ccccc32)C(c2ccc(Cl)cc2)N1 (stereo not drawn) the Potency was active: 28.2 µM. In the case of CCOC(=O)c1c(C)[nH]c(C(=O)CSc2nnc(Nc3ccccc3F)s2)c1C, the Potency is reported as “inactive”. With COC(=O)[C@H](CCSC)NC(=O)Nc1ccc(OC)cc1 the Potency was inconclusive: 100 µM [inhibitor, single point]. In the case of FC(F)Oc1cc(Cl)ccc1C1CC(c2ccc(Br)cc2)n2c(nc3ccccc32)N1 (stereo not drawn), the Potency is reported as inconclusive: 12.6 µM [inhibitor, partial curve, poor fit]. For CCCc1nc2c(=O)n(C)c(=O)[nH]c2n1CCC, the Potency was inconclusive: 22.4 µM [inhibitor, partial curve, poor fit]. For O=C1CCN(S(=O)(=O)c2cccc(F)c2)CCCC(c2nc(-c3cccnc3)no2)CCN1 (stereo not drawn), the Potency was inconclusive: 39.8 µM [inhibitor, full curve, poor fit]. In the case of N[C@@H]1CC[C@H](C(=O)NCc2csc(N3CCCC3)n2)C1, the Potency is reported as inconclusive: 10 µM [inhibitor, full curve]. With CCCC(=O)Nc1c(-c2ccccc2OC)c(=O)c2ccccc2n1C the Potency was inconclusive: 112 µM [inhibitor, partial curve, poor fit]. With CCc1ccccc1N(C)C(=O)c1nn(C)c2c1CSc1ccccc1-2 the Potency was inconclusive: 39.8 µM [inhibitor, partial curve, poor fit]. For O=C(COC(=O)c1ccc(Cl)c(S(=O)(=O)N2CCCCC2)c1)NC1CCCCC1, the Potency was inconclusive: 89.1 µM [inhibitor, single point]. CC[C@H]1Nc2ccc(OC)cc2[C@@H](NS(C)(=O)=O)[C@@H]1C was tested, and the Potency was inconclusive: 100 µM [inhibitor, partial curve, poor fit]. With COc1ccc(C(=O)OCC[N+]2(C)CCOCC2)cc1 the Potency was inconclusive: 44.7 µM [inhibitor, partial curve, poor fit]. CCOc1cccc2cc(-c3nc(-c4ccc(OC)c(F)c4)no3)c(=O)oc12 was tested, and the Potency was inconclusive: 44.7 µM [inhibitor, single point]. For CCc1ccc(OC(=O)c2ccccc2Br)cc1, the Potency was “inactive”. For CS(=O)(=O)N1CCC2(CC1)CN(c1cccc(-c3ccccc3)c1)C2, the Potency was “inactive”. With CCc1ccc2[nH]c(C)c(CN3CCCC(C)C3)c(=O)c2c1 (stereo not drawn) the Potency was “inactive”. O=C(c1cc(-c2cccs2)nc2ccccc12)N1CCN(C(=O)C2CC2)CC1 was tested, and the Potency was “inactive”. In the case of CCn1c(SCc2ccc(Cl)cc2Cl)nc2nc3c(cc2c1=O)CCCC3, the Potency is reported as “inactive”. O=C(CN1c2ccccc2Sc2ccccc21)NNC(=S)Nc1ccc(Cl)cc1 was tested, and the Potency was active: 14.1 µM. In the case of COc1ccc(/C=N/NC(=O)CCc2n[nH]c(=O)[nH]c2=O)cc1OC, the Potency is reported as inconclusive: 8.91 µM [inhibitor, full curve, poor fit]. With O=C(N1CC23C=CC(CC2CC12CCCCC2)O3)C(F)(F)F (stereo not drawn) the Potency was inconclusive: 0.282 µM [inhibitor, full curve, poor fit]. With COc1ccc(CCNC/C=C/c2ccccc2)cc1 the Potency was inconclusive: 50.1 µM [inhibitor, partial curve, poor fit]. For O=c1nc(SCc2c(F)cccc2Cl)nc(-c2ccccc2)[nH]1, the Potency was “inactive”. In the case of CNc1nc(-c2ccc(NC(=O)C(C)C)cc2)cs1, the Potency is reported as inconclusive: 28.2 µM [inhibitor, partial curve]. Cn1ccc2c(N3CCC3)cc3c(c21)C1CCC3O1 (stereo not drawn) was tested, and the Potency was inconclusive: 39.8 µM [inhibitor, partial curve, poor fit]. Cc1ccc(C(c2c(C)nn(-c3ccccc3)c2N)c2c(C)nn(-c3ccccc3)c2N)cc1 was tested, and the Potency was “inactive”. For CN(C)C(=O)CN1CCN(C(C(=O)O)c2c(-c3ccccc3)[nH]c3ccccc23)CC1 (stereo not drawn), the Potency was inconclusive: 89.1 µM [inhibitor, partial curve, poor fit]. C=CCOc1ccc2c(=O)c(-c3ccc(OC)c(OC)c3)c(C(F)(F)F)oc2c1 was tested, and the Potency was inconclusive: 112 µM [inhibitor, single point]. With Cn1cc(CN2Cc3c(cc(N4CCOCC4)nc3-c3cccc(F)c3)C2=O)cn1 the Potency was “inactive”. CCCCNC(=O)c1ccc(N)cc1 was tested, and the Potency was “inactive”. In the case of O=C(CSc1nc2c([nH]c3ccccc32)c(=O)n1-c1ccc(F)cc1)NCc1ccco1, the Potency is reported as inconclusive: 44.7 µM [inhibitor, partial curve, poor fit]. In the case of COc1ccc(Cn2nnnc2C(c2ccc(C)cc2)N2CCN(C3CCCC3)CC2)cc1 (stereo not drawn), the Potency is reported as inconclusive: 50.1 µM [inhibitor, partial curve, poor fit]. With CCCc1cc(C(=O)N2CCCC(Cc3ccccc3F)(C(=O)OCC)C2)n(C)n1 (stereo not drawn) the Potency was inconclusive: 39.8 µM [inhibitor, full curve, poor fit]. CC(C)CC(=O)N1CCC(O)(CS(=O)(=O)Cc2ccccc2Cl)CC1 was tested, and the Potency was inconclusive: 22.4 µM [inhibitor, full curve, poor fit]. For CCCC1CCC(C2=N/C(=C\c3ccc(OC)c(OC)c3)C(=O)O2)CC1 (stereo not drawn), the Potency was inconclusive: 79.4 µM [inhibitor, single point]. O=c1cc(CSc2nc3ccccc3c(=O)[nH]2)c2ccc(O)cc2o1 was tested, and the Potency was inconclusive: 56.2 µM [inhibitor, partial curve, poor fit]. In the case of NS(=O)(=O)CCCC(=O)N1CCC(c2ncc[nH]2)CC1, the Potency is reported as inconclusive: 39.8 µM [inhibitor, partial curve, poor fit]. COc1ccc(NC(=S)Nc2cccc(C(C)=O)c2)cc1OC was tested, and the Potency was inconclusive: 28.2 µM [inhibitor, partial curve, poor fit]. For Cc1ccc(CNC(=S)Nc2cc(C)ccc2OC(F)F)cc1, the Potency was inconclusive: 44.7 µM [inhibitor, partial curve, poor fit]. In the case of Cc1c(C)n(C)c2ccc(C(=O)NCCc3ccc(Cl)cc3)cc12, the Potency is reported as “inactive”. For CCOC(=O)CSc1nnc2n(CC)c(=O)c3c(n12)-c1ccccc1CC31CCCCC1, the Potency was inconclusive: 79.4 µM [inhibitor, single point]. In the case of O=C1OC2OCCCC2C1Nc1ccc(I)cc1 (stereo not drawn), the Potency is reported as inconclusive: 2.24 µM [inhibitor, full curve, poor fit]. In the case of CCOc1ccc(NC(=O)c2ccc3c(c2)S(=O)(=O)N=C(C)N3CC(C)C)cc1, the Potency is reported as “inactive”. With COC(=O)c1c(C)oc2ccc(N(C(=O)Oc3ccccc3)S(=O)(=O)c3ccc(C(C)(C)C)cc3)cc12 the Potency was “inactive”. With COc1ccccc1N1C(=O)CC(Sc2n[nH]c(-c3cccc(C)c3)n2)C1=O (stereo not drawn) the Potency was inconclusive: 56.2 µM [inhibitor, single point]. COCCn1c(=O)cnc2cnc(N3CCOCC3)nc21 was tested, and the Potency was inconclusive: 79.4 µM [inhibitor, single point]. In the case of CCCn1nc(NC(=O)c2cccs2)c2cc3ccccc3nc21, the Potency is reported as inconclusive: 11.2 µM [inhibitor, full curve]. With CCOC(=O)C1=CN(Cc2ccco2)S(=O)(=O)N(CC)C1c1cccc(OC)c1 (stereo not drawn) the Potency was inconclusive: 126 µM [inhibitor, single point]. In the case of CC1(C)CC(=O)C2=C(C1)NC1=C(C(=O)c3ccccc31)C2c1ccc(O)cc1 (stereo not drawn), the Potency is reported as inconclusive: 56.2 µM [inhibitor, partial curve, poor fit]. In the case of COc1cc(C(=O)Nc2ccc(C(=O)O)cc2)ccc1OC(C)=O, the Potency is reported as “inactive”. Cc1nc2c(OCCOc3ccc(F)cc3)cccn2c1N(C)C(=O)CCC1CCCC1 was tested, and the Potency was “inactive”. In the case of O=C1CC(C(=O)Nc2ccc(F)c(F)c2)n2nc(-c3ccccc3)cc2N1 (stereo not drawn), the Potency is reported as “inactive”. Cc1cccc(C)c1NC(=O)c1c[nH]c2ccccc12 was tested, and the Potency was inconclusive: 89.1 µM [inhibitor, partial curve, poor fit]. In the case of O=C1C(=O)N(CCN2CCOCC2)C(c2cccnc2)/C1=C(/O)c1ccc(Cl)cc1 (stereo not drawn), the Potency is reported as “inactive”. With CC(=O)c1cccc(NC(=O)CCS(=O)(=O)c2cccc3nsnc23)c1 the Potency was inconclusive: 39.8 µM [inhibitor, partial curve, poor fit]. For O=C(COC(=O)/C=C/c1ccco1)NCc1ccco1, the Potency was “inactive”. In the case of O=C(N/N=C/c1cc(Cl)cc([N+](=O)[O-])c1O)c1ccccc1NS(=O)(=O)c1cccs1, the Potency is reported as inconclusive: 50.1 µM [inhibitor, partial curve, poor fit]. CC1=C(C(=O)Nc2ccc(F)c(F)c2)C(c2ccc(F)cc2)NC(=S)N1 (stereo not drawn) was tested, and the Potency was inconclusive: 50.1 µM [inhibitor, single point]. For COCCNC(=O)c1cc(S(=O)(=O)N2CCC3(CC2)OCCO3)ccc1F, the Potency was “inactive”. For CCCCc1ccc(NS(=O)(=O)c2ccc(N3CCCCS3(=O)=O)cc2)cc1, the Potency was inconclusive: 89.1 µM [inhibitor, partial curve, poor fit]. In the case of c1cncc(-c2nccc(NCc3cccs3)n2)c1, the Potency is reported as active: 20 µM. CC(=O)c1cccc(NC(=O)c2ccoc2C)c1 was tested, and the Potency was inconclusive: 50.1 µM [inhibitor, partial curve, poor fit]. O=C(OCc1noc(-c2ccco2)n1)c1cncc(Br)c1 was tested, and the Potency was “inactive”. In the case of CCCC(=O)N1CCN(c2ccc(NC(=O)c3ccc(N4CCCC4)c([N+](=O)[O-])c3)cc2Cl)CC1, the Potency is reported as “inactive”. For COc1ccc2[nH]cc(C(C(=O)O)N3CCCC3)c2c1 (stereo not drawn), the Potency was inconclusive: 56.2 µM [inhibitor, partial curve, poor fit].
